At least one structure is not confirmed: it was looked up by name or label, or the drawing left a doubt.
System: ICR mice
Assay: Locomotor activity test
Format: in vivo
Description: ICR mice of male sex, weighing 15.6-17.8 g were used, provided by Experimental Animal Centre of HKUST, housed in groups, given food and water ad libitum and maintained on a 12 hour light: 12 hour dark cycle. All of the experimental groups had 12 animals per group.
For each experimental animal, administered orally 0.2 ml (pH 7.2) of respective solvent at concentrations as stated above for each group (or double-distilled water for normal control group) one hour before testing.
An apparatus with a brown light-resistant box having dimensions of 60×60×30 cm was used to perform the test. It consists of four cylindrical plastic boxes of 20 cm diameter, each having 6 equally distributed infrared photocells. The locomotor activity was counted automatically during a 300 second test period. A decrease in the number of transitions reflects a decrease in locomotor activity.
Physical reflections existed for this group and there was no abnormal phenomenon in respiratory circulation.

**Q.** Which Inducing sleep (oral 20 mg/kg) does the source give for `COc1cc2c(cc1OC)[C@@H]1Cc3ccc(OC)c(OC)c3CN1CC2` [l-THP, l-tetrahydropalmatine] here?
**A.** The Inducing sleep was “+”.

**Q.** What about the Inducing sleep (oral 40 mg/kg) of the same compound?
**A.** Its Inducing sleep is “++”.

— patent publication US20040198770A1, “Uses for l-tetrahydropalmatine” (PharmacoGenetics Limited, priority 2003, published 2004)
